experiment: general procedure: Fmoc solid-phase peptide synthesis; Rink Amide MBHA; HBTU/HOBT/DIEA in NMP; conditions: whole synthesis, analytical HPLC, scale 0.25 mmol

| Substance | final HPLC purity |
| --- | --- |
| [A5C^31]hPYY(3-36)NH2 | approximately 97.6% |

experiment: general procedure: Fmoc solid-phase peptide synthesis; Rink Amide MBHA resin (0.72 mmol/g) for peptide amides; Wang resin (0.5 mmol/g) for peptide acids; HBTU/HOBT/DIEA in NMP; conditions: whole synthesis, analytical HPLC, scale of the general procedure 0.25 mmol

| Substance | final HPLC purity [%] |
| --- | --- |
| Ac-(2Pal^26, Leu^31)hPPY(24-36)NH2 | 94.8 |
| Ac-(3Pal^26, Leu^31)hPPY(24-36)NH2 | 97.2 |
| Ac-(4Pal^26, Leu^31)hPPY(24-36)NH2 | 97.0 |
| Ac-(Taz^26, Leu^31)hPPY(24-36)NH2 | 97.9 |
| Ac-[2Pal^26]hPYY(22-36)NH2 | 99.6 |
| Ac-[3Pal^26]hPYY(22-36)NH2 | 99.0 |
| Ac-[4Pal^26]hPYY(22-36)NH2 | 99.9 |
| Ac-[A5C^22]hPYY(22-36)NH2 | 99.9 |
| Ac-[A5c^31]hPYY(22-36)NH2 | 99.9 |
| Ac-[A6C^24, Leu^31]hPYY(24-36)NH2 | 98.8 |
| Ac-[A6C^24]hPYY(22-36)NH2 | 99.9 |
| Ac-[A6C^28, Leu^31]hPYY(24-36)NH2 | 97.5 |
| Ac-[A6C^31]hPYY(24-36)NH2 | 96.3 |
| Ac-[A6c^28]hPYY(22-36)NH2 | 99.9 |
| Ac-[A6c^30]hPYY(22-36)NH2 | 99.0 |
| Ac-[A6c^31]hPYY(22-36)NH2 | 99.9 |
| Ac-[D2Pal^26]hPYY(22-36)NH2 | 96.0 |
| Ac-[Taz^26]hPYY(22-36)NH2 | 97.9 |
| [3Pal^26]hPYY(3-36)NH2 | 99.9 |
| [A6C^24]hPYY(3-36)NH2 | 96.5 |
| [A6C^28]hPYY(3-36)NH2 | 96.8 |
| [A6C^30]hPYY(3-36)NH2 | 99.9 |
| [Aib^22]hPYY(3-36)NH2 | 97.7 |
| [Apc^35]hPYY(3-36)NH2 | 94.1 |
| [Taz^26]hPYY(3-36)NH2 | 95.6 |

Reference: patent US7811989 (dated 2010)
